From the supplement of paper PMC8728848
The list shows a part of the results.

What was measured:
Assay in all cases: glycan array binding signal (z-score within array); higher = stronger binding
Settings in all cases: glycan notation: IUPAC condensed, linker removed
[1] = molecular target: Gal(b1-3)GlcNAc(b1-6)GalNAc
Method in brief: (§1)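 Columns mapping to the same glycan were averaged after glycan names were converted to IUPAC-condensed notation. The data come from 3228 arrays in the Consortium for Functional Glycomics database, limited to those with an available protein sequence. Binding is reported as a within-array Z-score averaged across arrays of one protein sequence and across linkers.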

[2] = molecular target: Gal(b1-3)GlcNAc(b1-6)[Gal(b1-3)]GalNAc
Method in brief: as §1

Gal(b1-3)GlcNAc6S = molecular target: Gal(b1-3)GlcNAc6S
Method in brief: as §1

[3] = molecular target: Gal(b1-3)[Fuc(a1-4)]GlcNAc
Method in brief: as §1

[4] = molecular target: Gal(b1-3)[Fuc(a1-4)]GlcNAc(b1-2)Man
Method in brief: as §1

[5] = molecular target: Gal(b1-3)[Fuc(a1-4)]GlcNAc(b1-2)Man(a1-3)[Gal(b1-3)[Fuc(a1-4)]GlcNAc(b1-2)Man(a1-6)]Man(b1-4)GlcNAc(b1-4)[Fuc(a1-6)]GlcNAc
Method in brief: as §1

[6] = molecular target: Gal(b1-3)[Fuc(a1-4)]GlcNAc(b1-3)Gal(b1-3)[Fuc(a1-4)]GlcNAc
Method in brief: as §1

[7] = molecular target: Gal(b1-3)[Fuc(a1-4)]GlcNAc(b1-3)Gal(b1-4)[Fuc(a1-3)]GlcNAc
Method in brief: as §1

[8] = molecular target: Gal(b1-3)[Fuc(a1-4)]GlcNAc(b1-6)GalNAc
Method in brief: as §1

[9] = molecular target: Gal(b1-3)[GlcNAc(b1-6)]GalNAc
Method in brief: as §1

[10] = molecular target: Gal(b1-3)[Neu5Ac(a2-6)]GalNAc
Method in brief: as §1

[11] = molecular target: Gal(b1-3)[Neu5Ac(a2-6)]GlcNAc(b1-4)Gal(b1-4)Glc
Method in brief: as §1

[12] = molecular target: Gal(b1-3)[Neu5Ac(b2-6)]GalNAc
Method in brief: as §1

Gal(b1-4)Gal = molecular target: Gal(b1-4)Gal
Method in brief: as §1

[13] = molecular target: Gal(b1-4)GalNAc(a1-3)[Fuc(a1-2)]Gal(b1-4)GlcNAc
Method in brief: as §1

[14] = molecular target: Gal(b1-4)GalNAc(b1-3)[Fuc(a1-2)]Gal(b1-4)GlcNAc
Method in brief: as §1

Gal(b1-4)Glc = molecular target: Gal(b1-4)Glc
Method in brief: as §1

Gal(b1-4)Glc6S = molecular target: Gal(b1-4)Glc6S
Method in brief: as §1

Gal(b1-4)GlcNAc = molecular target: Gal(b1-4)GlcNAc
Method in brief: as §1

[15] = molecular target: Gal(b1-4)GlcNAc(a1-6)Gal(b1-4)GlcNAc
Method in brief: as §1

Gal(b1-4)GlcNAc(b1-2)Man = molecular target: Gal(b1-4)GlcNAc(b1-2)Man
Method in brief: as §1

[16] = molecular target: Gal(b1-4)GlcNAc(b1-2)Man(a1-3)Man(b1-4)GlcNAc(b1-4)GlcNAc
Method in brief: as §1

[17] = molecular target: Gal(b1-4)GlcNAc(b1-2)Man(a1-3)[Gal(b1-4)GlcNAc(b1-2)Man(a1-6)]Man(b1-4)GlcNAc(b1-4)GlcNAc
Method in brief: as §1

[18] = molecular target: Gal(b1-4)GlcNAc(b1-2)Man(a1-3)[Gal(b1-4)GlcNAc(b1-2)Man(a1-6)]Man(b1-4)GlcNAc(b1-4)[Fuc(a1-6)]GlcNAc
Method in brief: as §1

[19] = molecular target: Gal(b1-4)GlcNAc(b1-2)Man(a1-3)[Gal(b1-4)GlcNAc(b1-2)Man(a1-6)][Gal(b1-4)GlcNAc(b1-4)]Man(b1-4)GlcNAc(b1-4)[Fuc(a1-6)]GlcNAc
Method in brief: as §1

[20] = molecular target: Gal(b1-4)GlcNAc(b1-2)Man(a1-3)[Gal(b1-4)GlcNAc(b1-2)Man(a1-6)][GlcNAc(b1-4)]Man(b1-4)GlcNAc(b1-4)[Fuc(a1-6)]GlcNAc
Method in brief: as §1

[21] = molecular target: Gal(b1-4)GlcNAc(b1-2)Man(a1-3)[GlcNAc(b1-2)Man(a1-6)]Man(b1-4)GlcNAc(b1-4)GlcNAc
Method in brief: as §1

[22] = molecular target: Gal(b1-4)GlcNAc(b1-2)Man(a1-3)[GlcNAc(b1-4)][Gal(b1-4)GlcNAc(b1-2)Man(a1-6)]Man(b1-4)GlcNAc(b1-4)GlcNAc
Method in brief: as §1

[23] = molecular target: Gal(b1-4)GlcNAc(b1-2)Man(a1-3)[Man(a1-6)]Man(b1-4)GlcNAc(b1-4)GlcNAc
Method in brief: as §1

[24] = molecular target: Gal(b1-4)GlcNAc(b1-2)Man(a1-6)Man(b1-4)GlcNAc(b1-4)GlcNAc
Method in brief: as §1

[25] = molecular target: Gal(b1-4)GlcNAc(b1-2)Man(a1-6)[GlcNAc(b1-2)Man(a1-3)]Man(b1-4)GlcNAc(b1-4)GlcNAc
Method in brief: as §1

[26] = molecular target: Gal(b1-4)GlcNAc(b1-2)Man(a1-6)[Man(a1-3)]Man(b1-4)GlcNAc(b1-4)GlcNAc
Method in brief: as §1

[27] = molecular target: Gal(b1-4)GlcNAc(b1-2)[Gal(b1-4)GlcNAc(b1-4)]Man(a1-3)[Gal(b1-4)GlcNAc(b1-2)Man(a1-6)]Man(b1-4)GlcNAc(b1-4)GlcNAc
Method in brief: as §1

[28] = molecular target: Gal(b1-4)GlcNAc(b1-2)[Gal(b1-4)GlcNAc(b1-4)]Man(a1-3)[Gal(b1-4)GlcNAc(b1-2)[Gal(b1-4)GlcNAc(b1-6)]Man(a1-6)]Man(b1-4)GlcNAc(b1-4)GlcNAc
Method in brief: as §1

[29] = molecular target: Gal(b1-4)GlcNAc(b1-2)[Gal(b1-4)GlcNAc(b1-4)]Man(a1-3)[GlcNAc(b1-4)][Gal(b1-4)GlcNAc(b1-2)Man(a1-6)]Man(b1-4)GlcNAc(b1-4)GlcNAc
Method in brief: as §1

[30] = molecular target: Gal(b1-4)GlcNAc(b1-2)[Gal(b1-4)GlcNAc(b1-4)]Man(a1-3)[GlcNAc(b1-4)][Gal(b1-4)GlcNAc(b1-2)[Gal(b1-4)GlcNAc(b1-6)]Man(a1-6)]Man(b1-4)GlcNAc(b1-4)GlcNAc
Method in brief: as §1

[31] = molecular target: Gal(b1-4)GlcNAc(b1-2)[Gal(b1-4)GlcNAc(b1-6)]Man(a1-6)[Gal(b1-4)GlcNAc(b1-2)Man(a1-3)]Man(b1-4)GlcNAc(b1-4)GlcNAc
Method in brief: as §1

[32] = molecular target: Gal(b1-4)GlcNAc(b1-2)[Gal(b1-4)GlcNAc(b1-6)]Man(a1-6)[Gal(b1-4)GlcNAc(b1-2)Man(a1-3)]Man(b1-4)GlcNAc(b1-4)[Fuc(a1-6)]GlcNAc
Method in brief: as §1

[33] = molecular target: Gal(b1-4)GlcNAc(b1-2)[Gal(b1-4)GlcNAc(b1-6)]Man(a1-6)[GlcNAc(b1-4)][Gal(b1-4)GlcNAc(b1-2)Man(a1-3)]Man(b1-4)GlcNAc(b1-4)GlcNAc
Method in brief: as §1

[34] = molecular target: Gal(b1-4)GlcNAc(b1-2)[Gal(b1-4)GlcNAc(b1-6)]Man(a1-6)[GlcNAc(b1-4)][Gal(b1-4)GlcNAc(b1-2)[Gal(b1-4)GlcNAc(b1-4)]Man(a1-3)]Man(b1-4)GlcNAc(b1-4)[Fuc(a1-6)]GlcNAc
Method in brief: as §1

[35] = molecular target: Gal(b1-4)GlcNAc(b1-3)Gal(b1-3)GalNAc
Method in brief: as §1

[36] = molecular target: Gal(b1-4)GlcNAc(b1-3)Gal(b1-3)GlcNAc
Method in brief: as §1

[37] = molecular target: Gal(b1-4)GlcNAc(b1-3)Gal(b1-4)Glc
Method in brief: as §1

[38] = molecular target: Gal(b1-4)GlcNAc(b1-3)Gal(b1-4)GlcNAc
Method in brief: as §1

[39] = molecular target: Gal(b1-4)GlcNAc(b1-3)Gal(b1-4)GlcNAc(b1-2)Man(a1-3)[Gal(b1-4)GlcNAc(b1-3)Gal(b1-4)GlcNAc(b1-2)Man(a1-6)]Man(b1-4)GlcNAc(b1-4)GlcNAc
Method in brief: as §1

B1: pTFF2 (Sus scrofa), P01359 (protein)
chain: KPAACRCSRQDPKNRVNCGFPGITSDQCFTSGCCFDSQVPGVPWCFKPLPAQESEECVMEVSARKNCGYPGISPEDCAARNCCFSDTIPEVPWCFFPMSVEACHY
glycan array binding signal (z-score) [1]: -0.598
glycan array binding signal (z-score) [2]: 0.066
glycan array binding signal (z-score) (Gal(b1-3)GlcNAc6S): -0.886
glycan array binding signal (z-score) [3]: 0.273
glycan array binding signal (z-score) [4]: -0.709
glycan array binding signal (z-score) [5]: -0.85
glycan array binding signal (z-score) [6]: 0.775
glycan array binding signal (z-score) [7]: -0.511
glycan array binding signal (z-score) [8]: -0.796
glycan array binding signal (z-score) [9]: 0.621
glycan array binding signal (z-score) [10]: -0.388
glycan array binding signal (z-score) [11]: -0.172
glycan array binding signal (z-score) [12]: -0.703
glycan array binding signal (z-score) (Gal(b1-4)Gal): -2.31
glycan array binding signal (z-score) [13]: 0.721
glycan array binding signal (z-score) [14]: 1.44
glycan array binding signal (z-score) (Gal(b1-4)Glc): 0.777
glycan array binding signal (z-score) (Gal(b1-4)Glc6S): 0.896
glycan array binding signal (z-score) (Gal(b1-4)GlcNAc): -0.819
glycan array binding signal (z-score) [15]: -2.1
glycan array binding signal (z-score) (Gal(b1-4)GlcNAc(b1-2)Man): -2.22
glycan array binding signal (z-score) [16]: 0.982
glycan array binding signal (z-score) [17]: -1.6
glycan array binding signal (z-score) [18]: -0.621
glycan array binding signal (z-score) [19]: 0.089
glycan array binding signal (z-score) [20]: -1.21
glycan array binding signal (z-score) [21]: -0.258
glycan array binding signal (z-score) [22]: -1.45
glycan array binding signal (z-score) [23]: 0.659
glycan array binding signal (z-score) [24]: 0.009
glycan array binding signal (z-score) [25]: 0.896
glycan array binding signal (z-score) [26]: -1.37
glycan array binding signal (z-score) [27]: -0.702
glycan array binding signal (z-score) [28]: 1.07
glycan array binding signal (z-score) [29]: 0.232
glycan array binding signal (z-score) [30]: -0.742
glycan array binding signal (z-score) [31]: -1.84
glycan array binding signal (z-score) [32]: 1.28
glycan array binding signal (z-score) [33]: -1.08
glycan array binding signal (z-score) [34]: 0.88
glycan array binding signal (z-score) [35]: 0.891
glycan array binding signal (z-score) [36]: -1.31
glycan array binding signal (z-score) [37]: 0.128
glycan array binding signal (z-score) [38]: -0.47
glycan array binding signal (z-score) [39]: -0.706
